In assay [1] the target is GAL4-BD-CHE (Arabidopsis thaliana) (UniProt Q9FTA2). Kind of assay: two-hybrid.
Assay [2] concerns the target FLAG-tagged full length ZTL (Arabidopsis thaliana) (UniProt Q94BT6). Nature of the assay: co-IP.
Assay [3] concerns the target T1, FLAG-tagged ZTL decoy (Arabidopsis thaliana) (UniProt Q94BT6).
T1 sequence: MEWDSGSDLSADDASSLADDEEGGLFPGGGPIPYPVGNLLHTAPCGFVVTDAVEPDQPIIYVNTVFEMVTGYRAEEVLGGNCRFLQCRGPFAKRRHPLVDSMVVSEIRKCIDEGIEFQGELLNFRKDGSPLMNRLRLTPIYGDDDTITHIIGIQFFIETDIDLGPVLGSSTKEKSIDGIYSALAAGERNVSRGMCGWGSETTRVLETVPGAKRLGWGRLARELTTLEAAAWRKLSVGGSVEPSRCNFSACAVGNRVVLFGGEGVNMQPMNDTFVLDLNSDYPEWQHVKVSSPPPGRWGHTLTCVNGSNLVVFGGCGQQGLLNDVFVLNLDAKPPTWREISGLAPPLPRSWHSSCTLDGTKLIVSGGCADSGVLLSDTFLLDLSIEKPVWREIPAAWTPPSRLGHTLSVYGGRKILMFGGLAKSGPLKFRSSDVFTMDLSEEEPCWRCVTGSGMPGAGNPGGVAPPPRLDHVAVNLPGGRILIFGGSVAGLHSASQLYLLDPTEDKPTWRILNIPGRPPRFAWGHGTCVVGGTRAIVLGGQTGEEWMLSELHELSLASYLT
Nature of the assay: co-IP.

By UniProt entry, the sequences of proteins in these tests, tags left out.
UniProt Q9FTA2: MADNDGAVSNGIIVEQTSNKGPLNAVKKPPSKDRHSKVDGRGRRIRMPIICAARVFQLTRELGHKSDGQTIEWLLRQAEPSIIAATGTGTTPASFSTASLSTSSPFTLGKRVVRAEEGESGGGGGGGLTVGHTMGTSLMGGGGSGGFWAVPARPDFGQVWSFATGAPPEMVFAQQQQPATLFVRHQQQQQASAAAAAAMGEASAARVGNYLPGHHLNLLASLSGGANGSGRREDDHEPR

No constants are given. Whether binding was seen depends on the method and setting. For part of these data: In cells and extracts the contact can be indirect. Some binding calls cover weakened binding; strength is not graded here. For part of these data: Sequences can lack the tags named with a protein.

As to “GAL4-AD-ZTL full length (from UniProt Q94BT6 1-609)”, the binding entry in assay [1] is listed as “binds”.
Take “GFP-tagged CHE (from UniProt Q9FTA2 1-239)”: the binding result in assay [2] and in assay [3] was “binds” each time.

The values above are taken from paper doi:10.1101/115071.
